Here are results for one molecule from doi:10.1101/2025.03.06.641037.

By UniProt entry, the sequences of proteins in these tests, tags left out.
UniProt P78347: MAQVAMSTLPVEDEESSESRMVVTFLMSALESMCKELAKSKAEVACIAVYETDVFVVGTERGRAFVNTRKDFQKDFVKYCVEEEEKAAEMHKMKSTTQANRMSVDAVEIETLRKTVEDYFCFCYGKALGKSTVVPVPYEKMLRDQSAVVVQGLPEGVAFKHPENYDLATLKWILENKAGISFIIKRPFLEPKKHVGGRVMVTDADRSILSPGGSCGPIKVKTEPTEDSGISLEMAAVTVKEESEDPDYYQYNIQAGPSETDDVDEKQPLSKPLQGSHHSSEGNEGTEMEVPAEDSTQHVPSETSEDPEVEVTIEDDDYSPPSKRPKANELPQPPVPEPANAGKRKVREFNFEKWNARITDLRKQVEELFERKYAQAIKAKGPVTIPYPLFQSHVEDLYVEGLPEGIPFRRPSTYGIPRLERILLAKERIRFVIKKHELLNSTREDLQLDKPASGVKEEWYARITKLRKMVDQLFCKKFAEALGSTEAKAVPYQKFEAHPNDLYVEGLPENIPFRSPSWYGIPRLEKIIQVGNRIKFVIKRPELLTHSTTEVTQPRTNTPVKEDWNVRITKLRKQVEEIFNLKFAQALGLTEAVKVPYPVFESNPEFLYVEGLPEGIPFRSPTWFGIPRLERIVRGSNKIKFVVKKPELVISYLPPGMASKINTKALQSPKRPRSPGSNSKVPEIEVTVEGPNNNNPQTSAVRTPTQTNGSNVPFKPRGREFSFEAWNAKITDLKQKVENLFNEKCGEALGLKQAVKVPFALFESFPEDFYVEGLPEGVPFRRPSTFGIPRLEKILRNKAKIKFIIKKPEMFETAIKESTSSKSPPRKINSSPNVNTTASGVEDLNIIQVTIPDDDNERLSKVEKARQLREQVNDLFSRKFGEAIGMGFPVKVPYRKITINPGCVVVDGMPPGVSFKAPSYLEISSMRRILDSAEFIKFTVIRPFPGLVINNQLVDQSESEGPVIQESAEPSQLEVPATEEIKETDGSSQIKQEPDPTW

The target of the test is GTF2I (human (endogenous in H9-derived hNSCs)) (UniProt P78347). In words: co-IP.

These are yes or no findings as the source states them, for the method shown. In cells and extracts the contact can be indirect. Some binding calls cover weakened binding; strength is not graded here. Where a sequence is shown, tags or fusion partners need not be part of it.

B1: F2V5-ADNP (Activity-Dependent Neuroprotective Protein, endogenously tagged) (protein, UniProt Q9H2P0 1-1102)
chain: MFQLPVNNLGSLRKARKTVKKILSDIGLEYCKEHIEDFKQFEPNDFYLKNTTWEDVGLWDPSLTKNQDYRTKPFCCSACPFSSKFFSAYKSHFRNVHSEDFENRILLNCPYCTFNADKKTLETHIKIFHAPNASAPSSSLSTFKDKNKNDGLKPKQADSVEQAVYYCKKCTYRDPLYEIVRKHIYREHFQHVAAPYIAKAGEKSLNGAVPLGSNAREESSIHCKRCLFMPKSYEALVQHVIEDHERIGYQVTAMIGHTNVVVPRSKPLMLIAPKPQDKKSMGLPPRIGSLASGNVRSLPSQQMVNRLSIPKPNLNSTGVNMMSSVHLQQNNYGVKSVGQGYSVGQSMRLGLGGNAPVSIPQQSQSVKQLLPSGNGRSYGLGSEQRSQAPARYSLQSANASSLSSGQLKSPSLSQSQASRVLGQSSSKPAAAATGPPPGNTSSTQKWKICTICNELFPENVYSVHFEKEHKAEKVPAVANYIMKIHNFTSKCLYCNRYLPTDTLLNHMLIHGLSCPYCRSTFNDVEKMAAHMRMVHIDEEMGPKTDSTLSFDLTLQQGSHTNIHLLVTTYNLRDAPAESVAYHAQNNPPVPPKPQPKVQEKADIPVKSSPQAAVPYKKDVGKTLCPLCFSILKGPISDALAHHLRERHQVIQTVHPVEKKLTYKCIHCLGVYTSNMTASTITLHLVHCRGVGKTQNGQDKTNAPSRLNQSPSLAPVKRTYEQMEFPLLKKRKLDDDSDSPSFFEEKPEEPVVLALDPKGHEDDSYEARKSFLTKYFNKQPYPTRREIEKLAASLWLWKSDIASHFSNKRKKCVRDCEKYKPGVLLGFNMKELNKVKHEMDFDAEWLFENHDEKDSRVNASKTADKKLNLGKEDDSSSDSFENLEEESNESGSPFDPVFEVEPKISNDNPEEHVLKVIPEDASESEEKLDQKEDGSKYETIHLTEEPTKLMHNASDSEVDQDDVVEWKDGASPSESGPGSQQVSDFEDNTCEMKPGTWSDESSQSEDARSSKPAAKKKATMQGDREQLKWKNSSYGKVEGFWSKDQSQWKNASENDERLSNPQIEWQNSTIDSEDGEQFDNMTDGVAEPMHGSLAGVKLSSQQA
In the case of B1, the binding entry is “binds”.
